Experimental data published in US20120231072A1, “THERMO-RESPONSIVE HYDROGEL COMPOSITIONS” (Chemisches Institut Schaefer AG, priority 2011, published 2012).
Where a name gives a salt, the structure may show the parent alone. Marks after values point to notes of the source that are not given here.

Key:
[1] = Drug encapsulation efficiency in PLGA particles; assay type: physicochemical; conditions: spectrophotometry at 240 nm
Protocol: PLGA (50 mg) was dissolved in dichloromethane (1 ml) followed by the addition of 0.1 ml DSP methanol solution (50 mg/ml). The clear organic mixture was emulsified into an external aqueous phase (5 ml, 2% w/v PVA) with vortexing for 20 seconds followed by sonication on ice at 55 W for 5 minutes. […] Nanospheres were harvested by ultracentrifugation at 16,000 g for 10 min, after which the resultant pellet was re-suspended in DI water by sonication and washed twice with DI water. To quantify drug encapsulation, the PLGA nanospheres were incubated overnight in 1N NaOH solution at 37° C. to allow complete PLGA degradation. The resultant solution was read spectrophotometrically at 240 nm for DSP concentration. Dynamic light scattering (DLS) was used to characterize the size of the nanospheres. […]
To test encapsulation efficiency, 1 ml of the PLGA microspheres and nanospheres suspensions were incubated overnight in 1 N NaOH solution at 37° C. to completely degrade PLGA in order to determine the total amount encapsulated in the PLGS. The drug concentration was determined spectrophotometrically at 240 nm. […] The encapsulation efficiency was calculated as (actual drug loaded/total drug used)×100%.

3T3 fibroblast cells = test: Fibroblast MTS anti-proliferative activity assay; assay type: cell-based; conditions: mouse fibroblast cells, previous tests
Protocol: PLGA nanospheres with DSP were loaded into the thermo-responsive hydrogels at 10 mg/ml. […] After cells were grown to semiconfluence, growth was arrested by washing plates with PBS and then adding low serum medium with DMEM, 0.5% (v/v) FBS and 1% (v/v) penicillin/streptomycin mixture. Growth arrest was maintained for 24 hours. […] PBS was added to growth medium as control group.

Encapsulation efficiency ([1]; Microspheres): 7.6%^# | Encapsulation efficiency ([1]; Nanospheres): 30%^#
Compound: C[C@@H]1C[C@H]2[C@@H]3CCC4=CC(=O)C=C[C@]4(C)[C@@]3(F)[C@@H](O)C[C@]2(C)[C@@]1(O)C(=O)COP(=O)(O)O [DSP, Dexamethasone 21-phosphate disodium salt]
anti-proliferative activity (3T3 fibroblast cells): dose-dependent anti-proliferative activity
